These are yes or no findings as the source states them, for the method shown. In cells and extracts the contact can be indirect. These calls come from enrichment with a bait or labelling near it, and not all partners need be listed.
T1: native KCC2 (K+-Cl- cotransporter KCC2) (mouse (endogenous in brain)) (UniProt Q91V14)
T1 sequence: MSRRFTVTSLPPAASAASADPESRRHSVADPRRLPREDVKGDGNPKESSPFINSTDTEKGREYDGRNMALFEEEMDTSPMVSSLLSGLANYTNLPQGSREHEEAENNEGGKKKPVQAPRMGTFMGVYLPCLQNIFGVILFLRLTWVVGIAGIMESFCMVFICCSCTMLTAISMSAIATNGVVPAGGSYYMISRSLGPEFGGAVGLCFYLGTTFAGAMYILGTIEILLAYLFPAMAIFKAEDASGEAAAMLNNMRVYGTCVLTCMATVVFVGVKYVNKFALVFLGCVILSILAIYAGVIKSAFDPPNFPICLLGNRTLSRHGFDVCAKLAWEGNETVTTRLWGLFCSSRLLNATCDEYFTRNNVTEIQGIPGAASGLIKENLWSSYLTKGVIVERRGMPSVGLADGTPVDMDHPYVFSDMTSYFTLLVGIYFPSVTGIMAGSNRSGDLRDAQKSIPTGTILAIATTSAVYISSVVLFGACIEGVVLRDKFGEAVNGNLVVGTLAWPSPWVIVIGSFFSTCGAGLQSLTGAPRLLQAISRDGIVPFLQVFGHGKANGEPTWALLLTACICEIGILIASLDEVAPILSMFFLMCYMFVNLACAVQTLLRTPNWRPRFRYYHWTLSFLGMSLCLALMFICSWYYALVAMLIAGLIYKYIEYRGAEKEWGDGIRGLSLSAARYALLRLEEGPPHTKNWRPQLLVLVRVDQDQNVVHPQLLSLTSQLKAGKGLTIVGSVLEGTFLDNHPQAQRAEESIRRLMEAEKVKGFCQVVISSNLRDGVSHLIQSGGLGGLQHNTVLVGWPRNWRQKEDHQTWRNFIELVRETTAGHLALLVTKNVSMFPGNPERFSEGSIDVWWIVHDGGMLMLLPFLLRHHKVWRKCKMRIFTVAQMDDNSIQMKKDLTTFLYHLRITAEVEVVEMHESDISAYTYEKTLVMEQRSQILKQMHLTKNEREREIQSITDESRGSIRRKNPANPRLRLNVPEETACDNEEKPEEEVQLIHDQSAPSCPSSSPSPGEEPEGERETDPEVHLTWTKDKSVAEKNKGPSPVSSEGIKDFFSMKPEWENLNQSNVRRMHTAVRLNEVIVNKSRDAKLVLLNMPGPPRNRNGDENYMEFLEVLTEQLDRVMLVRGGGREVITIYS


The binders below were run against T1, native KCC2 (K+-Cl- cotransporter KCC2) (mouse (endogenous in brain)) (assay: affinity purification with mass spectrometry; anti-KCC2 antibodies (C-terminal, N-terminal KCC2b, pS940) cross-linked with DMP to GammaBind IgG beads; C12E9-solubilised whole-brain membrane fractions of P5 and P50 mice; 4 hr, 4°C; parallel IgG/IgY controls).

Binder | binding
TRIM3 (protein, UniProt Q9R1R2 1-744) MAKREDSPGPEVQPMDKQFLVCSICLDRYRCPKVLPCLHTFCERCLQNYIPPQSLTLSCPVCRQTSILPEQGVSALQNNFFISSLMEAMQQAPEGAHDPEDPHPLSAVAGRPLSCPNHEGKTMEFYCEACETAMCGECRAGEHREHGTVLLRDVVEQHKAALQRQLEAVRGRLPQLSAAIALVGGISQQLQERKAEALAQISAAFEDLEQALQQRKQALVSDLESICGAKQKVLQTQLDTLRQGQEHIGSSCSFAEQALRLGSAPEVLLVRKHMRERLAALAAQAFPERPHENAQLELVLEVDGLRRSVLNLGALLTTSATAHETVATGEGLRQALVGQPASLTVTTKDKDGRLVRTGSAELCAEITGPDGVRLAVPVVDHKNGTYELVYTARTEGDLLLSVLLYGQPVRGSPFRVRALRPGDLPPSPDDVKRRVKSPGGPGSHVRQKAVRRPSSMYSTGGKRKDNPIEDELVFRVGSRGREKGEFTNLQGVSAASSGRIVVADSNNQCIQVFSNEGQFKFRFGVRGRSPGQLQRPTGVAVDTNGDIIVADYDNRWVSIFSPEGKFKTKIGAGRLMGPKGVAVDRNGHIIVVDNKSCCVFTFQPNGKLVGRFGGRGATDRHFAGPHFVAVNNKNEIVVTDFHNHSVKVYSADGEFLFKFGSHGEGNGQFNAPTGVAVDSNGNIIVADWGNSRIQVFDSSGSFLSYINTSAEPLYGPQGLALTSDGHVVVADAGNHCFKAYRYLQ | binds
STRN3 (protein, UniProt Q9ERG2 1-796) MDELAGGGGGGQGMAAPPRPQQGPGGNLSLPPGANGAPGGGGPPAAEAAGPPAGPELSRPQQYTIPGILHYIQHEWARFEMERAHWEVERAELQARIAFLQGERKGQENLKKDLVRRIKMLEYALKQERAKYHKLKYGTELNQGDLKMPTFESEETKDVEAPPAPQNSQLTWKQGRQLLRQYLQEVGYTDTILDVRSQRVRSLLGLSNSEPNGSVEAKNLEQILNGGESPKQKGQEIKRPPGDVLETFNFLENADDSDEEENDMIEGIPEGKDKLRIHKHKIGNEGLAADLTDDPDTEEALKEFDFLVTAEDGEGAGEARSSGDGTEWDKDDLSPTAEVWDVDQGLISKLKEQYKKERKGKKGVKRVNRTNLCDMITDLGDDELPHIPSGIINQSRSASTRMADHEGARAEEAEPITFPSGGGKSFIMGSDDVLLSVLGLGDLADLTVTNDADYSYDLPANKDAFRKTWNPKYTLRSHFDGVRALAFHPVEPVLVTASEDHTLKLWNLQKTVPAKKSASLDVEPIYTFRAHIGPVLSLAISSNGEQCFSGGIDATIQWWNMPSPNVDPYDTYESNVLAGTLVAHTDAVWGLAYSGIKNQLLSCSADGTIRLWNPQEKLPCVCTYNGDKEHGIPTSVDFIGCDPAHMVTSFNTGSAVIYDLETSQSLVMLSSQVDSGLQSSNHINRVVSHPTLPVTITAHEDRHIKFFDNKTGKMIHSMVAHLDAVTSLAVDPNGIYLMSGSHDCSIRLWNLDSKTCVQEITAHRKKLDESIYDVAFHPSKAYIASAGADALAKVFV | binds
CANX (protein, UniProt P35564 21-591) HDGHDDDAIDIEDDLDDVIEEVEDSKSKSDASTPPSPKVTYKAPVPTGEVYFADSFDRGSLSGWILSKAKKDDTDDEIAKYDGKWEVDEMKETKLPGDKGLVLMSRAKHHAISAKLNKPFLFDTKPLIVQYEVNFQNGIECGGAYVKLLSKTAELSLDQFHDKTPYTIMFGPDKCGEDYKLHFIFRHKNPKTGVYEEKHAKRPDADLKTYFTDKKTHLYTLILNPDNSFEILVDQSVVNSGNLLNDMTPPVNPSREIEDPEDRKPEDWDERPKIADPDAVKPDDWDEDAPSKIPDEEATKPEGWLDDEPEYIPDPDAEKPEDWDEDMDGEWEAPQIANPKCESAPGCGVWQRPMIDNPNYKGKWKPPMIDNPNYQGIWKPRKIPNPDFFEDLEPFKMTPFSAIGLELWSMTSDIFFDNFIISGDRRVVDDWANDGWGLKKAADGAAEPGVVLQMLEAAEERPWLWVVYILTVALPVFLVILFCCSGKKQSNAMEYKKTDAPQPDVKDEEGKEEEKNKRDEEEEEEKLEEKQKSDAEEDGVTGSQDEEDSKPKAEEDEILNRSPRNRKPRRE | binds
YWHAQ (protein, UniProt P68254 1-245) MEKTELIQKAKLAEQAERYDDMATCMKAVTEQGAELSNEERNLLSVAYKNVVGGRRSAWRVISSIEQKTDTSDKKLQLIKDYREKVESELRSICTTVLELLDKYLIANATNPESKVFYLKMKGDYFRYLAEVACGDDRKQTIENSQGAYQEAFDISKKEMQPTHPIRLGLALNFSVFYYEILNNPELACTLAKTAFDEAIAELDTLNEDSYKDSTLIMQLLRDNLTLWTSDSAGEECDAAEGAEN | binds

Other lines, results leading:

binding | Binder
binds | MDH2 (protein, UniProt P08249 25-338) AKVAVLGASGGIGQPLSLLLKNSPLVSRLTLYDIAHTPGVAADLSHIETRANVKGYLGPEQLPDCLKGCDVVVIPAGVPRKPGMTRDDLFNTNATIVATLTAACAQHCPEAMVCIIANPVNSTIPITAEVFKKHGVYNPNKIFGVTTLDIVRANTFVAELKGLDPARVNVPVIGGHAGKTIIPLISQCTPKVDFPQDQLATLTGRIQEAGTEVVKAKAGAGSATLSMAYAGARFVFSLVDAMNGKEGVVECSFVQSKETECTYFSTPLLLGKKGLEKNLGIGKITPFEEKMIAEAIPELKASIKKGEDFVKNMK
binds | MAG (protein, UniProt P20917 20-627) GHWGAWMPSTISAFEGTCVSIPCRFDFPDELRPAVVHGVWYFNSPYPKNYPPVVFKSRTQVVHESFQGRSRLLGDLGLRNCTLLLSTLSPELGGKYYFRGDLGGYNQYTFSEHSVLDIVNTPNIVVPPEVVAGTEVEVSCMVPDNCPELRPELSWLGHEGLGEPTVLGRLREDEGTWVQVSLLHFVPTREANGHRLGCQAAFPNTTLQFEGYASLDVKYPPVIVEMNSSVEAIEGSHVSLLCGADSNPPPLLTWMRDGMVLREAVAKSLYLDLEEVTPGEDGVYACLAENAYGQDNRTVELSVMYAPWKPTVNGTVVAVEGETVSILCSTQSNPDPILTIFKEKQILATVIYESQLQLELPAVTPEDDGEYWCVAENQYGQRATAFNLSVEFAPIILLESHCAAARDTVQCLCVVKSNPEPSVAFELPSRNVTVNETEREFVYSERSGLLLTSILTIRGQAQAPPRVICTSRNLYGTQSLELPFQGAHRLMWAKIGPVGAVVAFAILIAIVCYITQTRRKKNVTESSSFSGGDNPHVLYSPEFRISGAPDKYESEKQRLGSERRLLGLRGESPELDLSYSHSDLGKRPTKDSYTLTEELAEYAEIRVK
binds | INA (protein, UniProt P46660 1-501) MSFGSEHYLCSASSYRKVFGDSSRLSARLSGPGGSGSFRSQSLSRSNVASTAACSSASSLGLGLAYRRLPASDGLDLSQAAARTNEYKIIRTNEKEQLQGLNDRFAVFIEKVHQLETQNRALEAELAALRQRHAEPSRVGELFQRELRELRAQLEEASSARAQALLERDGLAEEVQRLRARCEEESRGREGAERALKAQQRDVDGATLARLDLEKKVESLLDELAFVRQVHDEEVAELLATLQASSQAAAEVDVAVAKPDLTSALREIRAQYESLAAKNLQSAEEWYKSKFANLNEQAARSTEAIRASREEIHEYRRQLQARTIEIEGLRGANESLERQILELEERHSAEVAGYQDSIGQLESDLRNTKSEMARHLREYQDLLNVKMALDIEIAAYRKLLEGEETRFSTGGLSISGLNPLPNPSYLLPPRILSSTASKVSSAGLSLKKEEEEEEEEASKEVSKKTSKVGEGFEETLGEAVISTKKTGKSATEESTSSSQKM
binds | STOML2 (protein, UniProt Q99JB2 29-353) SSGLPRNTVILFVPQQEAWVVERMGRFHRILEPGLNVLIPVLDRIRYVQSLKEIVINVPEQSAVTLDNVTLQIDGVLYLRIMDPYKASYGVEDPEYAVTQLAQTTMRSELGKLSLDKVFRERESLNANIVDAINQAADCWGIRCLRYEIKDIHVPPRVKESMQMQVEAERRKRATVLESEGTRESAINVAEGKKQAQILASEAEKAEQINQAAGEASAVLAKAKAKAEAIRILAGALTQHNGDAAASLTVAEQYVSAFSKLAKDSNTVLLPSNPSDVTSMVAQAMGVYGALTKAPVPGAQNSSQSRRDVQATDTSIEELGRVKLS

Source: PMC5640428
